Reference: publication PMC7766232 (Molecules, 2020)
HELM strings list residues between dots; [ac] is acetyl, [am] amide, other brackets name non-standard units.

Assay: general procedure: hybrid (solid and solution phase) peptide synthesis; 2-chlorotritylchloride resin (100-200 mesh, 1% DVB; loading 1.51 mmol/g); TBTU/DIPEA; HATU/DIPEA for beta-ACPC and for macrocyclization
Conditions: whole synthesis; for final HPLC purity / isolated yield: scale of the general procedure 0.190 mmol (8, 9), 0.095 mmol (10); for isolated yield: overall, on resin loading

With “PEPTIDE1{R.G.D.[ACPC_1R2S].V}$PEPTIDE1,PEPTIDE1,1:R1-5:R2$$$V2.0” the isolated mass was 11 mg, the “final HPLC purity” value was “HPLC purity = 99%” and the isolated yield was “overall yield 9%”.

For “PEPTIDE1{R.G.D.[ACPC_1S2R].V}$PEPTIDE1,PEPTIDE1,1:R1-5:R2$$$V2.0”, the isolated mass was 13 mg, the “final HPLC purity” value was “HPLC purity = 96%” and the isolated yield was “overall yield 10%”.

With “PEPTIDE1{[isoAsp].G.R.[ACPC_1R2S].V}$PEPTIDE1,PEPTIDE1,1:R1-5:R2$$$V2.0” the isolated mass was 9.97 mg, the “final HPLC purity” value was “HPLC purity > 99%” and the isolated yield was 16% overall yield.
